These are yes or no findings as the source states them, for the method shown. Binding seen in cells or lysates may run through a third protein. Some entries that bind do so weakly or less than the wild type.
B1: Pim1 (endogenous, ATP-dependent yeast Lon protease) (enzyme, UniProt P36775 99-1133)
chain: KDDSTSQKKDEDVKIVPDEKDTDNDVEPTRDDEIVNKDQEGEASKNSRSSASGGGQSSSSRSDSGDGSSKQKPPKDVPEVYPQMLALPIARRPLFPGFYKAVVISDERVMKAIKEMLDRQQPYIGAFMLKNSEEDTDVITDKNDVYDVGVLAQITSAFPSKDEKTGTETMTALLYPHRRIKIDELFPPNEEKEKSKEQAKDTDTETTVVEDANNPEDQESTSPATPKLEDIVVERIPDSELQHHKRVEATEEESEELDDIQEGEDINPTEFLKNYNVSLVNVLNLEDEPFDRKSPVINALTSEILKVFKEISQLNTMFREQIATFSASIQSATTNIFEEPARLADFAAAVSAGEEDELQDILSSLNIEHRLEKSLLVLKKELMNAELQNKISKDVETKIQKRQREYYLMEQLKGIKRELGIDDGRDKLIDTYKERIKSLKLPDSVQKIFDDEITKLSTLETSMSEFGVIRNYLDWLTSIPWGKHSKEQYSIPRAKKILDEDHYGMVDVKDRILEFIAVGKLLGKVDGKIICFVGPPGVGKTSIGKSIARALNRKFFRFSVGGMTDVAEIKGHRRTYIGALPGRVVQALKKCQTQNPLILIDEIDKIGHGGIHGDPSAALLEVLDPEQNNSFLDNYLDIPIDLSKVLFVCTANSLETIPRPLLDRMEVIELTGYVAEDKVKIAEQYLVPSAKKSAGLENSHVDMTEDAITALMKYYCRESGVRNLKKHIEKIYRKAALQVVKKLSIEDSPTSSADSKPKESVSSEEKAENNAKSSSEKTKDNNSEKTSDDIEALKTSEKINVSISQKNLKDYVGPPVYTTDRLYETTPPGVVMGLAWTNMGGCSLYVESVLEQPLHNCKHPTFERTGQLGDVMKESSRLAYSFAKMYLAQKFPENRFFEKASIHLHCPEGATPKDGPSAGVTMATSFLSLALNKSIDPTVAMTGELTLTGKVLRIGGLREKAVAAKRSGAKTIIFPKDNLNDWEELPDNVKEGLEPLAADWYNDIFQKLFKDVNTKEGNSVWKAEFEILDAKKEKD
modifications: phosphorylation at S974 (on the Pim1 portion of the cross-linked peptide)
B2: Ste11 (endogenous, MEK kinase) (enzyme, UniProt P23561 1-717)
chain: MEQTQTAEGTDLLIGDEKTNDLPFVQLFLEEIGCTQYLDSFIQCNLVTEEEIKYLDKDILIALGVNKIGDRLKILRKSKSFQRDKRIEQVNRLKNLMEKVSSLSTATLSMNSELIPEKHCVIFILNDGSAKKVNVNGCFNADSIKKRLIRRLPHELLATNSNGEVTKMVQDYDVFVLDYTKNVLHLLYDVELVTICHANDRVEKNRLIFVSKDQTPSDKAISTSKKLYLRTLSALSQVGPSSSNLLAQNKGISHNNAEGKLRIDNTEKDRIRQIFNQRPPSEFISTNLAGYFPHTDMKRLQKTMRESFRHSARLSIAQRRPLSAESNNIGDILLKHSNAVDMALLQGLDQTRLSSKLDTTKIPKLAHKRPEDNDAISNQLELLSVESGEEEDHDFFGEDSDIVSLPTKIATPKNWLKGACIGSGSFGSVYLGMNAHTGELMAVKQVEIKNNNIGVPTDNNKQANSDENNEQEEQQEKIEDVGAVSHPKTNQNIHRKMVDALQHEMNLLKELHHENIVTYYGASQEGGNLNIFLEYVPGGSVSSMLNNYGPFEESLITNFTRQILIGVAYLHKKNIIHRDIKGANILIDIKGCVKITDFGISKKLSPLNKKQNKRASLQGSVFWMSPEVVKQTATTAKADIWSTGCVVIEMFTGKHPFPDFSQMQAIFKIGTNTTPEIPSWATSEGKNFLRKAFELDYQYRPSALELLQHPWLDAHII
modifications: dimethylation on R305 (on the Ssa1-Ste11 cross-linked peptide)
B3: Mtw1 (endogenous, MIND kinetochore complex component) (protein, UniProt P39731 1-289)
chain: MSAPTMRSTSILTEHLGYPPISLVDDIINAVNEIMYKCTAAMEKYLLSKSKIGEEDYGEEIKSGVAKLESLLENSVDKNFDKLELYVLRNVLRIPEEYLDANVFRLENQKDLVIVDENELKKSEEKLREKVNDVELAFKKNEMLLKRVTKVKRLLFTIRGFKQKLNELLKCKDDVQLQKILESLKPIDDTMTLLTDSLRKLYVDSESTSSTEEVEALLQRLKTNGKQNNKDFRTRYIDIRTNNVLRKLGLLGDKEDEKQSAKPDARTQAGDIVSIDIEEPQLDLLDDVL
modifications: phosphorylation at Y86 (in the identified site of interaction)
B4: Pcl7 (endogenous) (protein, UniProt P40186 1-285)
chain: MELSSPSKKTTTSPINIPGGNRDNLIIGPHSHSFKTDPFSSNNSSLLSKISTNPSLESPFSSKSLLDCSPVQAVKKSLESEAKTHSLDEETNEQTDVKILNIADFPTDELILMISALLNRIITANDETTDVSQQVSDETEDELLTPILAFYGKNVPEIAVVQYLERIQKYCPTTNDIFLSLLVYFDRISKNYGHSSERNGCAKQLFVMDSGNIHRLLITGVTICTKFLSDFFYSNSRYAKVGGISLQELNHLELQFLILCDFKLLVSVEEMQKYANLLYKFWNDQ

The chains behind the UniProt entries cited, without tags or fusion partners.
UniProt P10591: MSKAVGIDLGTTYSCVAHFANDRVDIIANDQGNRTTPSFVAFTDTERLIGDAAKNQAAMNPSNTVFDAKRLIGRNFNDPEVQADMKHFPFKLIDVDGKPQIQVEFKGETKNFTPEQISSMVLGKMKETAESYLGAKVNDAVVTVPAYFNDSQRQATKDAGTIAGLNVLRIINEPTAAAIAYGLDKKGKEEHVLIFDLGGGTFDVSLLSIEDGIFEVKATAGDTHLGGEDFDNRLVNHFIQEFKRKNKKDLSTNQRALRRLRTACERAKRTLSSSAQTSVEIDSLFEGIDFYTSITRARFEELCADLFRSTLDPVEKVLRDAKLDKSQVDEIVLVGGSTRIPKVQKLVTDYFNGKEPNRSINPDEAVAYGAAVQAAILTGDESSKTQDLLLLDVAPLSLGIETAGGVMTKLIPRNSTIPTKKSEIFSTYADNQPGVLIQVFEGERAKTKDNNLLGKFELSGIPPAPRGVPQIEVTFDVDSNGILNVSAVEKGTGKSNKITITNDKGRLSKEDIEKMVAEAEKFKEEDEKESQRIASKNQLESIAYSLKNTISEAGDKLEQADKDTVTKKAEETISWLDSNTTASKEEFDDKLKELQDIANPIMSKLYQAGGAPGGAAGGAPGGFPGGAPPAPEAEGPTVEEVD

These binders were tested against HIS-tagged Ssa1 (yeast Hsp70) (S. cerevisiae) (UniProt P10591) (assay: cross-linking; XL-MS: about 150 ug of His-Ssa1 complex purified from yeast (His-Trap), cross-linked with 5 mM DSSO, room temperature, 1 h; trypsin digest, LC-MS with MS2/MS3; filtered for cross-linked peptides with at least one Ssa1 peptide).

Row | binding | Binder
1 | binds | B1
2 | binds | B2
3 | binds | B3
4 | binds | B4

— PMC9629621
